The list does not hold the whole screen: it gathers tests that were run many times, whatever their T/C, doses with no T/C, and many T/C values between a quarter and a half above the control. Other doses and runs of a compound stand elsewhere. T/C: endpoint of the treated group in % of that of the vehicle group. Some entries give survivors of the animals treated and no T/C: the source files T/C as zero there, which appears to mark a toxic dose or a test without result, not a measured value. Some survivor counts are full or nearly so, which does not show that the dose was tolerated: the source hardly ever lists a survival T/C far under the control, and the zero likely stands for such cases as well. Counts of survivors are from the toxicity check (mostly the fifth day) where no day follows; animals may have died later. Schedule codes are those of the source, taken here to give the interval after Q, in days (D) or hours (H), and the number of doses after X. Some schedule codes hold Z or #, which are not explained here. Where survival is the endpoint, the PubChem record calls one and a half times the control and up active, and a quarter to a half above the control has no call in these data; cut-offs in other NCI protocols can differ. Some T/C values are followed by the survivors on the day toxicity was checked, most often the fifth; without a count, all were alive then. Some doses were run more than once; the results are listed from low to high.

The values below come from PubChem BioAssay AID248 (DTP/NCI, 2004).

The test system of this assay is L1210 leukemia ip in BDF1 mice, survival T/C. The assay is described as follows: NCI In Vivo Anticancer Drug Screen. Data for tumor model L1210 Leukemia (intraperitoneal) in B6D2F1 (BDF1) mice. The settings on record: T/C endpoint: mean survival time, higher T/C = longer survival.
Setting [1] is: dose: 500.0 mg/kg/injection, schedule: Q01DX Z (oral), vehicle: carboxymethylcellulose (CMC).

Turning to `CC(=O)OCC1OC(n2ncc(=O)[nH]c2=O)C(OC(C)=O)C1OC(C)=O` (stereo not drawn), the T/C (dose: 12.0 mg/kg/injection, schedule: Q01DX Z (oral), vehicle: carboxymethylcellulose (CMC)) was 128 % of control; the T/C (dose: 16.0 mg/kg/injection, schedule: Q03HX024 (ip), vehicle: other) is 131 % of control; the T/C (dose: 16.0 mg/kg/injection, schedule: Q03HX024 (oral), vehicle: other) was 127 % of control; the T/C (dose: 18.0 mg/kg/injection, schedule: Q01DX Z (oral), vehicle: carboxymethylcellulose (CMC)) is 132 and 136 % of control; the T/C (dose: 27.0 mg/kg/injection, schedule: Q01DX Z (oral), vehicle: carboxymethylcellulose (CMC)) was 135 % of control; the T/C (dose: 31.0 mg/kg/injection, schedule: Q01DX Z (ip), vehicle: carboxymethylcellulose (CMC)) was 135 % of control. For the same compound, the T/C by setting is: (dose: 31.0 mg/kg/injection, schedule: Q01DX Z (sc), vehicle: carboxymethylcellulose (CMC)) 144 % of control; (dose: 35.0 mg/kg/injection, schedule: Q01DX Z (im), vehicle: carboxymethylcellulose (CMC)) 125 and 130 % of control; (dose: 41.0 mg/kg/injection, schedule: Q01DX Z (oral), vehicle: carboxymethylcellulose (CMC)) 146 % of control; (dose: 41.66 mg/kg/injection, schedule: Q#B X Z (ip), vehicle: carboxymethylcellulose (CMC)) 114, 116, 133, 137 % of control; (dose: 55.0 mg/kg/injection, schedule: Q01DX Z (im), vehicle: carboxymethylcellulose (CMC)) 136 % of control; (dose: 62.0 mg/kg/injection, schedule: Q01DX Z (ip), vehicle: carboxymethylcellulose (CMC)) 142 % of control. Moreover, the T/C was 146 % of control (dose: 62.0 mg/kg/injection, schedule: Q01DX Z (oral), vehicle: carboxymethylcellulose (CMC)); 135 % of control (dose: 62.0 mg/kg/injection, schedule: Q01DX Z (sc), vehicle: carboxymethylcellulose (CMC)); 130 and 136 % of control (dose: 62.5 mg/kg/injection, schedule: Q01DX009 (ip), vehicle: saline); 131 % of control (dose: 64.0 mg/kg/injection, schedule: Q01DX009 (ip), vehicle: other); 131 % of control (dose: 64.0 mg/kg/injection, schedule: Q01DX009 (oral), vehicle: other); 140 % of control (dose: 64.0 mg/kg/injection, schedule: Q03HX024 (ip), vehicle: other). The T/C was 141 % of control (dose: 64.0 mg/kg/injection, schedule: Q03HX024 (oral), vehicle: other); 147 % of control (dose: 83.33 mg/kg/injection, schedule: Q#B X Z (ip), vehicle: carboxymethylcellulose (CMC)); 131 and 142 % of control (dose: 125.0 mg/kg/injection, schedule: Q01DX009 (ip), vehicle: saline); 132 and 138 % of control (dose: 125.0 mg/kg/injection, schedule: Q01DX Z (ip), vehicle: carboxymethylcellulose (CMC)); 138 % of control (dose: 125.0 mg/kg/injection, schedule: Q01DX Z (oral), vehicle: carboxymethylcellulose (CMC)); 124, 127, 135, 137 % of control (dose: 125.0 mg/kg/injection, schedule: Q01DX Z (sc), vehicle: carboxymethylcellulose (CMC)). In addition, the T/C by setting is: (dose: 128.0 mg/kg/injection, schedule: Q01DX009 (ip), vehicle: other) 128 % of control; (dose: 128.0 mg/kg/injection, schedule: Q01DX009 (oral), vehicle: other) 135 % of control; (dose: 185.0 mg/kg/injection, schedule: Q01DX Z (sc), vehicle: carboxymethylcellulose (CMC)) 135 % of control; (dose: 250.0 mg/kg/injection, schedule: Q01DX006 (iv), vehicle: carboxymethylcellulose (CMC)) 125 % of control; (dose: 250.0 mg/kg/injection, schedule: Q01DX009 (ip), vehicle: saline) 131 and 145 % of control; (dose: 250.0 mg/kg/injection, schedule: Q01DX Z (ip), vehicle: carboxymethylcellulose (CMC)) 125 and 141 % of control. Further, the T/C by setting is: (dose: 250.0 mg/kg/injection, schedule: Q01DX Z (sc), vehicle: carboxymethylcellulose (CMC)) 131 % of control; (dose: 256.0 mg/kg/injection, schedule: Q01DX009 (ip), vehicle: other) 132 % of control; (dose: 256.0 mg/kg/injection, schedule: Q01DX009 (oral), vehicle: other) 134 % of control; (dose: 280.0 mg/kg/injection, schedule: Q01DX Z (sc), vehicle: carboxymethylcellulose (CMC)) 132 % of control; (dose: 300.0 mg/kg/injection, schedule: Q01DX010 (ip), vehicle: saline) 142 and 145 % of control; (dose: 333.33 mg/kg/injection, schedule: Q#B X Z (ip), vehicle: carboxymethylcellulose (CMC)) 127 % of control. For the same compound, the T/C is 142 % of control (dose: 420.0 mg/kg/injection, schedule: Q01DX Z (sc), vehicle: carboxymethylcellulose (CMC)); 130 % of control (dose: 450.0 mg/kg/injection, schedule: Q01DX010 (ip), vehicle: saline); 126 % of control [5 of 6 alive] (dose: 500.0 mg/kg/injection, schedule: Q01DX006 (iv), vehicle: carboxymethylcellulose (CMC)); 137 and 140 % of control [5 of 6 alive] (dose: 500.0 mg/kg/injection, schedule: Q01DX009 (ip), vehicle: saline); 135 and 142 % of control (dose: 500.0 mg/kg/injection, schedule: Q01DX Z (ip), vehicle: carboxymethylcellulose (CMC)); 138 % of control under setting [1]. The T/C is, setting by setting: (dose: 512.0 mg/kg/injection, schedule: Q01DX009 (ip), vehicle: other) 148 % of control; (dose: 512.0 mg/kg/injection, schedule: Q04DX003 (oral), vehicle: other) 126 % of control; (dose: 675.0 mg/kg/injection, schedule: Q01DX010 (ip), vehicle: saline) 135 % of control; (dose: 1000.0 mg/kg/injection, schedule: Q01DX006 (iv), vehicle: carboxymethylcellulose (CMC)) 125 % of control; (dose: 1000.0 mg/kg/injection, schedule: Q01DX009 (ip), vehicle: saline) 131 and 142 % of control; (dose: 1000.0 mg/kg/injection, schedule: Q03DX Z (ip), vehicle: carboxymethylcellulose (CMC)) 136 % of control. Further, the T/C (dose: 1014.0 mg/kg/injection, schedule: Q01DX010 (ip), vehicle: saline) was 135 % of control. Also, the survivor count was 6 of 6 (dose: 61.66 mg/kg/injection, schedule: Q#B X Z (ip), vehicle: carboxymethylcellulose (CMC)); 6 of 6 (dose: 140.0 mg/kg/injection, schedule: Q#B X Z (ip), vehicle: carboxymethylcellulose (CMC)); 4 of 7 under setting [1]; 3 of 6 (dose: 1000.0 mg/kg/injection, schedule: Q01DX Z (ip), vehicle: carboxymethylcellulose (CMC)); 4 of 7 (dose: 1000.0 mg/kg/injection, schedule: Q01DX Z (oral), vehicle: carboxymethylcellulose (CMC)); 3 of 7 (dose: 2000.0 mg/kg/injection, schedule: Q01DX Z (oral), vehicle: carboxymethylcellulose (CMC)).

Turning to `Nc1nc(N)c2nc(CNCCc3ccccc3)cnc2n1`, the survivor count (dose: 80.0 mg/kg/injection, schedule: Q01DX009 (ip), vehicle: Klucel (hydroxypropylcellulose) (HPC)) is on record as 1 of 5.

Consider `COc1cc(C(=O)Nc2ccc(C3=NCCN3)cc2)ccc1C(=O)Nc1ccc(C2=NCCN2)cc1`, for which the T/C (dose: 1.88 mg/kg/injection, schedule: Q01DX Z (ip), vehicle: saline) was 128 % of control; the T/C (dose: 3.75 mg/kg/injection, schedule: Q01DX Z (ip), vehicle: saline) was 134 % of control; the T/C (dose: 7.5 mg/kg/injection, schedule: Q01DX Z (ip), vehicle: saline) was 141 % of control; the T/C (dose: 120.0 mg/kg/injection, schedule: Q01DX Z (ip), vehicle: saline) is 127 % of control [5 of 6 alive]. Further, the survivor count (dose: 240.0 mg/kg/injection, schedule: Q01DX Z (ip), vehicle: saline) is 0 of 6 and the survivor count (dose: 480.0 mg/kg/injection, schedule: Q01DX Z (ip), vehicle: saline) is recorded as 0 of 6.

Take `BrCC[CH2][Sn]([Br])([Br])[Br]`: the survivor count (dose: 200.0 mg/kg/injection, schedule: Q01DX009 (ip), vehicle: saline) is on record as 3 of 3.
